From paper PMC12651750 (Cells, 2025)

Tests used:
[1] = system: Jurkat, human leukemic T cell line; assay: Anti-proliferation MTT / CCK-8 assay; format: cell-based; settings: 72 h, read-out: IC50 against Jurkat cells
Experimental: (§1) These cells were purchased from the National Collection of Authenticated Cell Cultures (Shanghai, China).
(§2) The concentration of the cell suspension was adjusted to the appropriate concentration with fresh medium (the number of cells was about 30–40% of the bottom area of the well plate). 150 μL (about 1 × 10^4 cells) of prepared cell suspension containing different concentrations of NBU-2 were added to a 96-microtiter plate, and 3 replicate wells were set up for each concentration. If the cells were adherent, the cells were first allowed to grow overnight in 96 microtiter plates until the cells were adherent, and then the old medium was replaced with the drug-containing medium. The plates were incubated in a 5% CO2 cell incubator at 37 °C for 72 h. Then, 15 μL of MTT solution was added to each well, 100 μL of 10% SDS solution (pH = 2) was added after 4 h, and the plate was incubated at 37 °C with 5% CO2 overnight to fully dissolve the crystals.
(§3) The cells (about 1 × 10^4 cells) were treated with different concentrations of NBU-2 and DMSO control for different times (24 h, 48 h, 72 h), with 3 replicate wells for each concentration. Incubate at 37 °C in a 5% CO2 cell culture incubator. After a predetermined time, 10 μL of CCK-8 was added to each well and incubated for 2 h. The absorbance was measured at the excitation wavelength of 450 nm.

[2] = system: HUVEC, human umbilical vein endothelial cells; assay: Toxicity on normal cells (MTT / CCK-8 assay); format: cell-based; settings: 72 h, read-out: IC50 anti-proliferative activity against HUVECs
Experimental: as §1, §2, §3

Compound `O=C(CCCCCCC(=O)Nc1ccccc1)NO` [SAHA, Vorinostat, reference compound] has an IC50 [1] of 0.37 µM and an IC50 [2] of 5.62 µM.
